In publication PMC3111809:
Results are given in words; binding and its absence hold for the method and conditions named. Some results given as binding are weak or reduced against the parent protein; the word gives no strength.

Molecular target: NhaA, sodium-proton exchanger (UniProt P13738)
Test: crystal structure; NhaA crystals optimised in the detergent 12M, diffracting to 3.5 Å in the best direction; arrangement in the crystal told as unpublished data; both purified

B1: NhaA, sodium-proton exchanger (protein, UniProt P13738 1-388)
chain: MKHLHRFFSSDASGGIILIIAAILAMIMANSGATSGWYHDFLETPVQLRVGSLEINKNMLLWINDALMAVFFLLVGLEVKRELMQGSLASLRQAAFPVIAAIGGMIVPALLYLAFNYADPITREGWAIPAATDIAFALGVLALLGSRVPLALKIFLMALAIIDDLGAIIIIALFYTNDLSMASLGVAAVAIAVLAVLNLCGARRTGVYILVGVVLWTAVLKSGVHATLAGVIVGFFIPLKEKHGRSPAKRLEHVLHPWVAYLILPLFAFANAGVSLQGVTLDGLTSILPLGIIAGLLIGKPLGISLFCWLALRLKLAHLPEGTTYQQIMVVGILCGIGFTMSIFIASLAFGSVDPELINWAKLGILVGSISSAVIGYSWLRVRLRPSV
- binding: binds
